Test results published in PMC12001206, “Characterization of multiple binding sites on microtubule associated protein 2c recognized by dimeric and monomeric 14‐3‐3ζ” (The Febs Journal, 2025).
No constants are given. Whether binding was seen depends on the method and setting. Some binding calls cover weakened binding; strength is not graded here.

Sequences of proteins named here, by UniProt entry; tags and fusion partners are left off. A change or cut given only in a name is not applied to a line headed by its entry. A line that says so, or that is headed by a name, gives the form on record, which may keep a tag or linker.
MAP2c phosphorylated selectively by PKA at Ser435 (P15146, form named): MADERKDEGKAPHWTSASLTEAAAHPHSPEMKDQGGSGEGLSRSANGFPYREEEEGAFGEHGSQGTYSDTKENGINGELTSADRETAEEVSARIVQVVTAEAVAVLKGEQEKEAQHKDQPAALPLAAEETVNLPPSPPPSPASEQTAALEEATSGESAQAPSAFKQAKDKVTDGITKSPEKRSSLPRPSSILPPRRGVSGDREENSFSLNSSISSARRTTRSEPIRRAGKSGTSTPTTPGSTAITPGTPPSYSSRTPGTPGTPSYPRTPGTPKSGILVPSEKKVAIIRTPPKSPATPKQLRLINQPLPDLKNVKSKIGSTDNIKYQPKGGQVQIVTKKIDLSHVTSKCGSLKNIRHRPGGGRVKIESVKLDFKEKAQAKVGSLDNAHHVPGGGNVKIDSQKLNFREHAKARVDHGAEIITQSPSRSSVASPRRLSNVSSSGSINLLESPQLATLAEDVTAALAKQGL

Target: MAP2c phosphorylated selectively by PKA at Ser435 (rat) (UniProt P15146)
Test: NMR titration; 3D HNCO peak broadening; 100 μM 15N,13C-MAP2c sample with up to 200 μM 14-3-3ζ (monomer concentration); 27 °C; 50 mM MOPS, 100 mM NaCl, 0.5 mM TCEP; both purified

binding: binds
B1: dimeric pseudo wild‐type 14‐3‐3ζ (14‐3‐3ζ C25A/C189A) (natural protein)
chain: SVDMDKNELVQKAKLAEQAERYDDMAAAMKSVTEQGAELSNEERNLLSVAYKNVVGARRSSWRVVSSIEQKTEGAEKKQQMAREYREKIETELRDICNDVLSLLEKFLIPNASQAESKVFYLKMKGDYYRYLAEVAAGDDKKGIVDQSQQAYQEAFEISKKEMQPTHPIRLGLALNFSVFYYEILNSPEKAASLAKTAFDEAIAELDTLSEESYKDSTLIMQLLRDNLTLWTSDTQGDEAEAGEGGEN
notes: additional residues at the N-terminus; 14-3-3ζ, residues 1-245, UniProt P63104; C25A and C189A count on P63104; The results speak of '230 residues examined' in the crystals, the methods of residues 1-245 plus SVD; also called d14‐3‐3ζ; dimeric 14‐3‐3ζ
